Publication PMC7341970
These are yes or no findings as the source states them, for the method shown. In cells and extracts the contact can be indirect. These calls come from enrichment with a bait or labelling near it, and not all partners need be listed.

Amino acid sequences for entries named in this document (tags omitted).
UniProt P23198: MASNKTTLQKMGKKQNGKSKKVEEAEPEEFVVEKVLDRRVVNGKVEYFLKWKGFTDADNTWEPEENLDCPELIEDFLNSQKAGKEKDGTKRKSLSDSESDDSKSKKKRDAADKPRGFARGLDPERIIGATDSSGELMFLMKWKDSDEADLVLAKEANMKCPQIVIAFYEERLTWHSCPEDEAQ

Molecular target: T1, Activity Dependent Neuroprotective Protein (ADNP), endogenous (mouse (endogenous in mESCs)) (UniProt Q9Z103)
T1 sequence: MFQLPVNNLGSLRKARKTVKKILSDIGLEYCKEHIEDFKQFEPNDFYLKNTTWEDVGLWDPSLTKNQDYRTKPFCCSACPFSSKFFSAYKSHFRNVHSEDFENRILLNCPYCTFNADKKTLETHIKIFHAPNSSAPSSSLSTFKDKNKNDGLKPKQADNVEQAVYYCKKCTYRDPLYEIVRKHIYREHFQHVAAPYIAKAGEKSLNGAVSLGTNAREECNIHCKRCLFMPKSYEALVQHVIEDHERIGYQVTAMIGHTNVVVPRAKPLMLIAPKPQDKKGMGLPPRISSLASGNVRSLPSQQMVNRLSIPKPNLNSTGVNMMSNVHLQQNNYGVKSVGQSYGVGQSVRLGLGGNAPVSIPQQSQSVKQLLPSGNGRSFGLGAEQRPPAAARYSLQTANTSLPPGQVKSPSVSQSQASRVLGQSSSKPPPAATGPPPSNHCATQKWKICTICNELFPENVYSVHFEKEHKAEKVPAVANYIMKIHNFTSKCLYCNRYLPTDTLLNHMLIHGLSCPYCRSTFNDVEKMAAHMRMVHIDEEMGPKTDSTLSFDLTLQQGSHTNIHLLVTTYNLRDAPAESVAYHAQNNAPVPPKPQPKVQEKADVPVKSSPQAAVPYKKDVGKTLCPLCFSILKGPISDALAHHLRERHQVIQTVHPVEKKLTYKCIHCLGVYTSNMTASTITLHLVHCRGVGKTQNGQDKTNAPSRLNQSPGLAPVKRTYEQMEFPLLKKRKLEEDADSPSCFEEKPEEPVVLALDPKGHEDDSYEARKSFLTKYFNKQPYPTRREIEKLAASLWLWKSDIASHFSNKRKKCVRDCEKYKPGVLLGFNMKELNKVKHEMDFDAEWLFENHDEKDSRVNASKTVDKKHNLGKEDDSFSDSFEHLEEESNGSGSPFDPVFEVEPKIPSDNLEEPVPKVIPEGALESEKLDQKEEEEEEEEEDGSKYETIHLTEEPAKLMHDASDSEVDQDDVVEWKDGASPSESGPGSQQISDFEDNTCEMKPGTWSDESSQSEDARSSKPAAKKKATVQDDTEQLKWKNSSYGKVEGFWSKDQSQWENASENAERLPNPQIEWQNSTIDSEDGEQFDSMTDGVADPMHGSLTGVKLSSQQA
Assay: affinity purification with mass spectrometry; IP with commercial ADNP antibody (IgG as control) from mESCs, whole gel lanes analysed by mass spectrometry

binding: binds
Substance: HP1γ, endogenous (from UniProt P23198 1-183)
